PubChem BioAssay AID1508597 – Cure First – 2020

Test: 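Genes whose silencing sensitises or protects ovarian cancer cells against rucaparib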 (primary screen)
System: human ovarian carcinoma lines grown from tumours: OCI-P5x (papillary serous) and OCI-C5x (clear cell)
Reagents: siRNA pool against human genes, 1.25 pmol siRNA per well
Duration: 72 h or 96 h, depending on the cell culture
Treatment: rucaparib 20 µM (about IC30) or vehicle, present until read-out
Rucaparib or vehicle: Vehicle
Cell line: OCI-C5x (clear cell)
Detection: 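ATP luminescence measured at 72 or 96 h according to the culture, then normalised and expressed as percent viability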
Reading the numbers: viability, normalised: higher = more viable cells remaining
Hit rule: 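a well counts as a hit if its normalised viability is under 80 percent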
Calls: active = viability under 80%; inactive = viability 80% or more
Shown is an unselected part of the about 2,100 reagents, in one setting of the screen. 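Calls flag viability under 80% in either arm, not effects specific to rucaparib; the reference for percent is not stated.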 A number with no mark means an inactive call. Reagents against one gene are numbered here. Some reagents were tested in more than one well and are listed for each. The record does not give: the 100% reference.

target gene	reagent	technical replicate	viability, normalised (%)
TSPYL2	1	1	55.6 (active)
TSPYL2	1	2	52.6 (active)
TSPYL2	1	3	43.4 (active)
PIK3R1	1	1	39.4 (active)
PIK3R1	1	2	44.5 (active)
PIK3R1	1	3	51.7 (active)
CCK	1	1	39.2 (active)
CCK	1	2	57.3 (active)
CCK	1	3	40.6 (active)
CDH1	1	1	28 (active)
CDH1	1	2	41.8 (active)
CDH1	1	3	29.2 (active)
DGKQ	1	1	55.4 (active)
DGKQ	1	2	77.1 (active)
DGKQ	1	3	59.1 (active)
ACVR1B	1	1	84
ACVR1B	1	2	73.7 (active)
ACVR1B	1	3	50.7 (active)
ASNS	1	1	39.4 (active)
ASNS	1	2	54.2 (active)
ASNS	1	3	45.8 (active)
PI4KB	1	1	43.4 (active)
PI4KB	1	2	41.7 (active)
PI4KB	1	3	41.4 (active)
PI4KB	2	1	43.3 (active)
PI4KB	2	2	51.3 (active)
PI4KB	2	3	34.5 (active)
UCKL1	1	1	76 (active)
UCKL1	1	2	52.8 (active)
UCKL1	1	3	30.8 (active)
XAB2	1	1	82.1
XAB2	1	2	24.9 (active)
XAB2	1	3	19.6 (active)
TLR7	1	1	60.4 (active)
TLR7	1	2	54.9 (active)
TLR7	1	3	57.3 (active)
INO80C	1	1	72.9 (active)
INO80C	1	2	71.6 (active)
INO80C	1	3	72.1 (active)
BRCC3	1	1	61.8 (active)
BRCC3	1	1	67.2 (active)
BRCC3	1	2	55.8 (active)
BRCC3	1	2	71.2 (active)
BRCC3	1	3	54.8 (active)
BRCC3	1	3	64.4 (active)
CA14	1	1	59.3 (active)
CA14	1	2	55.8 (active)
CA14	1	3	50.4 (active)
TDRD5	1	1	53.7 (active)
TDRD5	1	2	63.1 (active)
TDRD5	1	3	61.9 (active)
BAZ1A	1	1	49 (active)
BAZ1A	1	2	66.3 (active)
BAZ1A	1	3	42.3 (active)
MED28	1	1	33.8 (active)
MED28	1	2	42.8 (active)
MED28	1	3	37.2 (active)

An excerpt of the results above:
target gene	reagent	technical replicate	viability, normalised (%)
CCK	1	2	57.3 (active)
CCK	1	3	40.6 (active)
CDH1	1	1	28 (active)
CDH1	1	2	41.8 (active)
CDH1	1	3	29.2 (active)
DGKQ	1	1	55.4 (active)
